According to PubChem BioAssay AID2685 (National Center for Advancing Translational Sciences (NCATS), 2010):
About 2,100 (0.66%) of roughly 320,000 compounds were called active. Inconclusive results, whose numbers are uncertain, are shown with a selection of clear calls. Calls follow the shape of the dose curve; as a rule, active = well fitted inhibition curve with a large enough effect in the signal ratio, with a control signal flat (not every such curve was filed as active); inconclusive = small, poorly fitted or top-dose-only effect, or effect the other way, or a change in a side signal; inactive = flat fitted curve, though single readings scatter; the % refers to the signal ratio. Where the call is inconclusive, the potency comes from a doubtful curve fit.

Assay: qHTS Assay for Lipid Storage Modulators in Drosophila S3 Cells
Settings: BODIPY lipid droplet fluorescence, 18-24 h, cells fed with added oleic acid; lipid storage change, negative = inhibition: at 46.1 µM (top of the series) unless noted
In short: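 Drosophila S3 cells loaded with oleic acid (400 uM, as added) and compounds at several concentrations; lipid droplets imaged by 488-nm laser-scanning cytometry, 500–530 nm intensity and object ratio to cell channel. Percent activity normalized to 20 uM Triacsin C.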
% is scaled to controls: 0 for no effect and ±100 for the full control effect; potency is read from the fitted curve at half-maximal effect.

Row | Compound | lipid storage change, negative = inhibition | Potency | outcome
1 | O=C(Cc1ccc(S(=O)(=O)N2CCOCC2)s1)Nc1ccc2c(c1)CCC2 | inactive: -2.06% |  | 
2 | COc1ccccc1CN1CCN(Cc2nc(-c3cccs3)no2)CC1 | inconclusive: 5.95% |  | 
3 | Cc1cc(C)cc(N(CCC#N)C(=O)COC(=O)C2CCN(c3ccc(C(F)(F)F)cn3)CC2)c1 | inconclusive: 39.5% |  | 
4 | CCOC(=O)c1nn(-c2cccc(C)c2)c2nnc(Cc3ccc(C)cc3)c(=O)n12 | inconclusive: -0.828% |  | 
5 | CS(=O)(=O)N(CC(=O)Nc1ccccc1F)C1CCCCC1 | inconclusive: 30.6% |  | 
6 | CCOc1ccc(N2C(=O)CC(N3CCN(c4ccc(F)cc4)CC3)C2=O)cc1 (centres undefined) |  | inconclusive: 13 µM [activator, partial curve] | 
7 | CCn1c(=O)c(=O)n(CC)c2cc(S(=O)(=O)Nc3cccc(OC)c3)ccc21 | inconclusive: -13.1% |  | 
8 | COc1cc(CC(=O)Nc2cccc(SC)c2)cc(OC)c1OC | inconclusive: -15% |  | 
9 | O=C(CN1CCOCC1)NCc1cc([N+](=O)[O-])ccc1O |  | inconclusive: 2.59 µM [rising, single point] | 
10 | CCOC(=O)C1CCN(C(=O)CSc2cc(=O)n(C)c3ccccc23)CC1 | inconclusive: 1.43% |  | 
11 | C/C(=C\C(=O)c1ccc(Br)cc1)Nc1ccc(Cl)cc1 |  | inconclusive: 14.6 µM [activator, partial curve] | 
12 | Cc1cccc(C(=O)NCC(=O)N2CC(=O)Nc3ccccc32)c1 |  | inconclusive: 0.0058 µM [falling, full curve, poor fit] | 
13 | CCOC(=O)c1ccccc1NC(=O)[C@@H]1CCCN1C(=O)OC(C)(C)C | inconclusive: 35.1% |  | 
14 | C[C@H]1[C@H](C)CC[C@]2(C(=O)O)CC[C@]3(C)C(=CC[C@@H]4[C@@]5(C)C[C@@H](O)[C@H](O)C(C)(C)[C@@H]5CC[C@]43C)[C@H]12 | inconclusive: -25% |  | 
15 | O=CN1CCN(CC(O)Cn2c3ccccc3c3ccccc32)CC1 (centres undefined) | inconclusive: 31.5% |  | 
16 | Cc1ccc(S(=O)(=O)NCC(=O)NCC2COc3ccccc3O2)cc1C (centres undefined) | inconclusive: -75.5% |  | 
17 | COc1ccc(CNC(=O)CN(C(=O)c2csnn2)c2cccc(C(C)=O)c2)cc1 |  | inconclusive: 0.411 µM [falling, full curve] | 
18 | O=C(CN1CCN(Cc2ccccc2Cl)C1=O)NC1CCCCCCC1 | inconclusive: 0.45% |  | 
19 | Cc1ccc(C(=O)c2oc3ccc(Cl)cc3c2NC(=O)CN2CCN(C)CC2)cc1 |  | inconclusive: 0.651 µM [activator, single point] | 
20 | CC(=O)Nc1ccc(S(=O)(=O)NC2C3(C)CCC(C3)C2(C)C)cc1 (centres undefined) | inconclusive: -48.2% |  | 
21 | O=c1[nH]c(SCc2ccc(F)cc2Cl)nc2ccccc12 | inconclusive: 7.04% |  | 
22 | COc1ccc(NS(=O)(=O)c2cccc(C(=O)OCC(=O)N3CCN(c4ccc(OC)cc4)CC3)c2)cc1 |  | inconclusive: 29.1 µM [cytotoxic, single point] | 
23 | COc1ccc(C(N)=O)cc1NC(=O)c1cccc(F)c1 | inconclusive: 18.9% |  | 
24 | CSc1ccccc1C(=O)NCC(c1ccco1)N(C)C (centres undefined) | inconclusive: -13.5% |  | 
25 | Cc1cc(C(=O)c2ccc(Cl)cc2)c(NC(=O)CCl)s1 |  | inconclusive: 20.6 µM [falling, single point] | 

Row | Compound | lipid storage change, negative = inhibition | Potency | outcome
26 | CN(C)C1=NC[C@H](Cc2ccccc2)N1CCCC1CCCCC1 | inconclusive: 12.6% |  | 
27 | CN(c1ccc(OCC(=O)OCC(=O)Nc2c(F)c(F)c(F)c(F)c2F)cc1)S(=O)(=O)c1ccc(F)cc1 | inconclusive: -17% |  | 
28 | CCC(=O)N1CCc2cc(-c3csc(NC(=O)c4ccco4)n3)ccc21 |  | inconclusive: 6.51 µM [falling, full curve, poor fit] | 
29 | COc1cccc(CC(=O)OCC(=O)c2cc(OC)ccc2OC)c1 | inconclusive: 55.5% |  | 
30 | Cc1cc(C)n(C(=O)c2sc3cc(F)ccc3c2Cl)n1 |  | inconclusive: 1.16 µM [activator, full curve, poor fit] | 
31 | Cc1ccc(CN2[C@@H](Cc3ccccc3)C(=O)CS2(=O)=O)cc1 |  | inconclusive: 29.1 µM [activator, single point] | 
32 | O=C(N/N=C/c1cccnc1)c1cccc(S(=O)(=O)N2CCCC2)c1 | inconclusive: 65.7% |  | 
33 | Cc1ccc(OCC(=O)O/N=C(\N)c2ccncc2)cc1C |  | inconclusive: 16.4 µM [activator, partial curve, poor fit] | 
34 | O=C(NC1CCN(C(=S)Nc2ccccc2Cl)CC1)C1CCCCC1 |  | inconclusive: 29.1 µM [falling, single point] | 
35 | CCCCOC(=O)c1ccc(OC(=O)c2cccnc2)cc1 |  | inconclusive: 0.184 µM [falling, full curve, poor fit] | 
36 | O=C(Cn1nc(-c2ccco2)ccc1=O)Nc1ccc(Br)cc1 |  | inconclusive: 4.61 µM [falling, full curve, poor fit] | 
37 | Cc1cc2nsnc2c(S(=O)(=O)NCC(=O)O)c1C |  | inconclusive: 4.61 µM [falling, single point] | 
38 | O=C(O)c1cc(-c2cc(C(=O)O)c3ccccc3n2)nc2ccccc12 | inconclusive: 53.3% |  | 
39 | CCC1CCCCN1CCCNC(=O)C1CCCN(c2nn3c(=O)cc(C)nc3s2)C1 (centres undefined) |  |  | inactive [at 46.1 µM]
40 | COc1nc2ccccc2nc1N1CCN(c2ccc(F)cc2)CC1 |  | inconclusive: 1.16 µM [activator, full curve] | 
41 | CCc1cc2c(=O)c(-c3cnn(-c4ccccc4)c3)c(C)oc2cc1OCC(=O)Nc1cccc(C)c1 |  | inconclusive: 7.31 µM [activator, partial curve] | 
42 | OC1(CN2CCOCC2)C2CN3CCN(C2)CC1(c1ccccc1)C3 (centres undefined) | inactive: 5.96% |  | 
43 | CCN(CC)C(=O)c1ccc2c(=O)n(Cc3ccc4c(c3)OCO4)c(=S)[nH]c2c1 | inconclusive: -34.3% |  | 
44 | CC(=O)C1=C(O)C(=O)N(c2ccc(S(N)(=O)=O)cc2)C1c1cccc([N+](=O)[O-])c1 (centres undefined) | inactive: -11.7% |  | 
45 | C=CCn1c(CCC(O)COCCCCC)n[nH]c1=S (centres undefined) | inconclusive: 23.8% |  | 
46 | C=CCn1c(CNC(=O)c2ccccc2F)nnc1SCC(=O)N1CCOCC1 |  | inconclusive: 29.1 µM [falling, single point] | 
47 | COc1cc(CNCc2ccncc2)cc(Br)c1OCc1ccccc1F | inconclusive: 29.8% |  | 
48 | O=C1c2ccccc2C(=O)C1c1ccc2ccccc2n1 |  | inconclusive: 8.2 µM [activator, partial curve, poor fit] | 
49 | C=C(C(=O)c1ccccc1)C(C)C(=C)C(=O)c1ccccc1 |  | inconclusive: 18.4 µM [falling, single point] | 
50 | COc1cccc(NC(=O)[C@@H](NC(=O)N2CCn3c2nc2ccccc23)C(C)C)c1 | inconclusive: 16.7% |  | 

Part of the list above in order of length of the SMILES, ascending:
Row | Compound | lipid storage change, negative = inhibition | Potency | outcome
35 | CCCCOC(=O)c1ccc(OC(=O)c2cccnc2)cc1 |  | inconclusive: 0.184 µM [falling, full curve, poor fit] | 
23 | COc1ccc(C(N)=O)cc1NC(=O)c1cccc(F)c1 | inconclusive: 18.9% |  | 
8 | COc1cc(CC(=O)Nc2cccc(SC)c2)cc(OC)c1OC | inconclusive: -15% |  | 
15 | O=CN1CCN(CC(O)Cn2c3ccccc3c3ccccc32)CC1 (centres undefined) | inconclusive: 31.5% |  | 
18 | O=C(CN1CCN(Cc2ccccc2Cl)C1=O)NC1CCCCCCC1 | inconclusive: 0.45% |  | 
42 | OC1(CN2CCOCC2)C2CN3CCN(C2)CC1(c1ccccc1)C3 (centres undefined) | inactive: 5.96% |  | 
13 | CCOC(=O)c1ccccc1NC(=O)[C@@H]1CCCN1C(=O)OC(C)(C)C | inconclusive: 35.1% |  | 
39 | CCC1CCCCN1CCCNC(=O)C1CCCN(c2nn3c(=O)cc(C)nc3s2)C1 (centres undefined) |  |  | inactive [at 46.1 µM]
7 | CCn1c(=O)c(=O)n(CC)c2cc(S(=O)(=O)Nc3cccc(OC)c3)ccc21 | inconclusive: -13.1% |  | 
50 | COc1cccc(NC(=O)[C@@H](NC(=O)N2CCn3c2nc2ccccc23)C(C)C)c1 | inconclusive: 16.7% |  | 
41 | CCc1cc2c(=O)c(-c3cnn(-c4ccccc4)c3)c(C)oc2cc1OCC(=O)Nc1cccc(C)c1 |  | inconclusive: 7.31 µM [activator, partial curve] | 
27 | CN(c1ccc(OCC(=O)OCC(=O)Nc2c(F)c(F)c(F)c(F)c2F)cc1)S(=O)(=O)c1ccc(F)cc1 | inconclusive: -17% |  | 
14 | C[C@H]1[C@H](C)CC[C@]2(C(=O)O)CC[C@]3(C)C(=CC[C@@H]4[C@@]5(C)C[C@@H](O)[C@H](O)C(C)(C)[C@@H]5CC[C@]43C)[C@H]12 | inconclusive: -25% |  | 

Next compounds:

Row | Compound | lipid storage change, negative = inhibition | Potency | outcome
51 | COc1ccc(CNC2CCCc3ccccc32)c(OC)c1 (centres undefined) |  | inconclusive: 13 µM [falling, single point] | 
52 | CC1CCN(C(=O)Cn2nnc(-c3ccc([N+](=O)[O-])cc3)n2)CC1 | inconclusive: 132% |  | 
53 | O=C(CN1C(=O)NC2(CCCCC2)C1=O)Nc1cccc(Cl)c1Cl | inconclusive: 67.5% |  | 
54 | CC(c1ccccc1)N(C)C(=O)CSc1nnc(C2CC2)n1C1CC1 (centres undefined) | inconclusive: -38.2% |  | 
55 | Cc1cc(C)cc(-n2c(C)c3c(C)nnc(C)c3c2C)c1 | inconclusive: 5.45% |  | 
56 | CCOC(=O)[C@H]1[C@H]2COc3ccc(Br)cc3[C@@H]2N2C(=O)CN(CC3CCCO3)C(=O)[C@@]12C (some centres undefined) | inconclusive: 6.47% |  | 
57 | Cc1ccc(Nc2nc(N)nc(COC(=O)c3ccc(Br)o3)n2)cc1 | inconclusive |  | 
58 | COc1ccccc1N1CCN(C(=O)C2CC(=O)N(c3ccccc3)C2)CC1 (centres undefined) | inconclusive: -22.1% |  | 
59 | CCOc1ccc(CCNC(=O)COn2nnc3ccc(S(=O)(=O)N4CCOCC4)cc32)cc1OCC | inconclusive: -17.5% |  | 
60 | CC(C)C[C@@H](CSc1ccccc1)N1CCN(CCc2ccccc2)CCC1=O | inconclusive: -74.5% |  | 
61 | O=C(NCCCN1CCCCC1)c1ccc2c(c1)NC(=O)c1ccccc1S2 |  | inconclusive: 0.58 µM [activator, single point] | 
62 | O=C(NCCCn1ccnc1)c1cc2nc(-c3ccc(Br)cc3)cc(C(F)(F)F)n2n1 | inconclusive: -12.4% |  | 
63 | COc1cccc(CNC(=O)Cn2c(=O)n(CCC(=O)N3CCCCC3)c(=O)c3sccc32)c1 |  | active: 4.11 µM | 
64 | O=C(N=C1SC2CS(=O)(=O)CC2N1c1ccccc1)C1CC1 (centres undefined) | inconclusive: 4.03% |  | 
65 | Cc1cc2nnc(SCC(=O)Nc3cccc(S(=O)(=O)N4CCOCC4)c3)n2c2ccccc12 | inactive: 2.35% |  | 
66 | CCOc1cc(N2CCOCC2)c(OCC)cc1NC(=O)c1ccc(-n2ccnc2)c([N+](=O)[O-])c1 | inconclusive: -38.7% |  | 
67 | CC(=O)c1c(C)[nH]c(C(=O)OCc2ccccc2F)c1C | inconclusive: 48.4% |  | 
68 | Cc1cc(N2C(=O)Cc3ccccc3C2=O)ccc1C(C)C | inconclusive: -34.6% |  | 
69 | COc1ccc(NS(=O)(=O)c2ccc(N/N=C(\C)c3ccncc3)c([N+](=O)[O-])c2)cc1 | inconclusive: -29.1% |  | 
70 | O=[N+]([O-])c1ccc2c(c1)nnn2-c1ccccc1 | inconclusive: -40.4% |  | 
71 | O=S(=O)(c1ccc(N2CCOCC2)c(Cl)c1)N1CCOCC1 |  | inconclusive: 0.231 µM [activator, full curve] | 
72 | CCCCc1sc(-c2c(C#N)c(N)nc3c2CCCCC3)cc1[N+](=O)[O-] | inconclusive: -42.3% |  | 
73 | Cn1nccc1C(=O)NC1CCCc2c1cnn2-c1ccc(C(C)(C)C)cc1 (centres undefined) | inconclusive: -100% |  | 
74 | COc1ccc(S(=O)(=O)N2CCCC2)cc1NC(=O)c1ccccc1 | inconclusive: 49.7% |  | 
